Here are results for one substance from PMC4529235.

These are yes or no findings as the source states them, for the method shown. Binding seen in cells or lysates may run through a third protein.

The target of test [1] is tetrameric ASIC1a concatemeric fusion protein 4_(ASIC)FP (H8-(hA1a-N1Q7)3-hA1a) (human) (UniProt P78348). In words: cross-linking; oxidation with 0.3 mM NaTT (20 min, 4°C) of Ni-NTA affinity-purified fractions from Xenopus oocytes and CHO cells, on the beads; non-reducing SDS-PAGE, anti-ASIC1a western blot. On the technique in general: Immunoblotting shows a protein as a band on a membrane.

The target is the same in test [2]. In words: cross-linking; BMOE (0.5 or 2 mM) at the cell surface of Xenopus oocytes and CHO cells before lysis, cell-surface biotinylated fractions, SDS-PAGE under reducing conditions, anti-ASIC1a western blot; band intensities pooled over oocytes and CHO cells.

For the substance “tetrameric ASIC1a concatemeric fusion protein 4_(ASIC)FP (H8-(hA1a-N1Q7)3-hA1a) (from UniProt P78348-2 1-528; P78348-2 1-528; P78348-2 1-528; P78348-2 1-528)”, the binding entry in test [1] and in test [2] was “no binding” in each case.
